Results are given in words; binding and its absence hold for the method and conditions named. Some entries that bind do so weakly or less than the wild type.
Molecular target: T1, SYCP1 (1-811) (human) (UniProt Q15431)
T1 sequence: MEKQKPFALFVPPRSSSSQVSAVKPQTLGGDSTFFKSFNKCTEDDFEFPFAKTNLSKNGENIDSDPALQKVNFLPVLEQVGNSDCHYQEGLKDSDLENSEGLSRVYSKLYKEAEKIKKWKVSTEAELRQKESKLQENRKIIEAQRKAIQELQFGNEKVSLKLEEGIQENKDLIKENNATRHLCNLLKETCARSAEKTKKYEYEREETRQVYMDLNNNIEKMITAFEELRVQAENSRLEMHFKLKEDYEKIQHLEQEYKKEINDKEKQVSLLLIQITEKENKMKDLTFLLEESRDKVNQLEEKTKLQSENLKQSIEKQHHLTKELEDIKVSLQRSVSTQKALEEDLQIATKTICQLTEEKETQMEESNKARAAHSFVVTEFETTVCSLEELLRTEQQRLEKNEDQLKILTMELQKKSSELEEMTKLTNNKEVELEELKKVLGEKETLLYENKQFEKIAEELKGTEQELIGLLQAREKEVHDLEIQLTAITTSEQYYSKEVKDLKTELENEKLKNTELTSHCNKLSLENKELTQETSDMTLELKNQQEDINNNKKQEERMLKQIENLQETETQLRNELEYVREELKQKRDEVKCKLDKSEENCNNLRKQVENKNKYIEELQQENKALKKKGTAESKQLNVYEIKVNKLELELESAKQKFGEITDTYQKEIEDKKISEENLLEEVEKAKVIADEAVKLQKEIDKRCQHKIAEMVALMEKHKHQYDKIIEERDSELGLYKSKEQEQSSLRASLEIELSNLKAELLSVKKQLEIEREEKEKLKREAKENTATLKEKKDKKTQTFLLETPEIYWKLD
Test: two-hybrid

B1: SYCE3 (1-88) (protein, UniProt A1L190 1-88)
chain: MDDADPEERNYDNMLKMLSDLNKDLEKLLEEMEKISVQATWMAYDMVVMRTNPTLAESMRRLEDAFVNCKEEMEKNWQELLHETKQRL
- binding: binds

— doi:10.1101/2022.03.06.483192
